Measurements as given in PMC7450122.

Sequences of proteins named here, by UniProt entry; tags and fusion partners are left off.
UniProt Q9UER7: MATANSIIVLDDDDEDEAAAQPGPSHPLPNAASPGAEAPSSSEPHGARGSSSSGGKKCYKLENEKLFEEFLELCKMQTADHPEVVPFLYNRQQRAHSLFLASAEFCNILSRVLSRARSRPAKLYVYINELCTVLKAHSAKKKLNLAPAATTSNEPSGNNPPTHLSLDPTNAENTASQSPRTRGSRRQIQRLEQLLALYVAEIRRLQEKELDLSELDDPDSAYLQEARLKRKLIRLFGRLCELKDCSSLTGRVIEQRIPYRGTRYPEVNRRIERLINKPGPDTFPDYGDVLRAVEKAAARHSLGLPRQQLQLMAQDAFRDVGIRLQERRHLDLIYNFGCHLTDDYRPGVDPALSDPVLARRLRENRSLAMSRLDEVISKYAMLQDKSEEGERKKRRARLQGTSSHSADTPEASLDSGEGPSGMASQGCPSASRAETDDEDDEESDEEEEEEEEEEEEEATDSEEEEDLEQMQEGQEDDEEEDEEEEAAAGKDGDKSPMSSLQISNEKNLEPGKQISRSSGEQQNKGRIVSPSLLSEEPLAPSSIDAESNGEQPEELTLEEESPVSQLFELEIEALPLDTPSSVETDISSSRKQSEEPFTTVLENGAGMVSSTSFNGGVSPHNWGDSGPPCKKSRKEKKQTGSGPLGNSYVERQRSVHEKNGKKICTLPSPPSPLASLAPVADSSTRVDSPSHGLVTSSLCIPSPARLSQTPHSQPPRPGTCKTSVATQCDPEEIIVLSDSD
UniProt Q04206: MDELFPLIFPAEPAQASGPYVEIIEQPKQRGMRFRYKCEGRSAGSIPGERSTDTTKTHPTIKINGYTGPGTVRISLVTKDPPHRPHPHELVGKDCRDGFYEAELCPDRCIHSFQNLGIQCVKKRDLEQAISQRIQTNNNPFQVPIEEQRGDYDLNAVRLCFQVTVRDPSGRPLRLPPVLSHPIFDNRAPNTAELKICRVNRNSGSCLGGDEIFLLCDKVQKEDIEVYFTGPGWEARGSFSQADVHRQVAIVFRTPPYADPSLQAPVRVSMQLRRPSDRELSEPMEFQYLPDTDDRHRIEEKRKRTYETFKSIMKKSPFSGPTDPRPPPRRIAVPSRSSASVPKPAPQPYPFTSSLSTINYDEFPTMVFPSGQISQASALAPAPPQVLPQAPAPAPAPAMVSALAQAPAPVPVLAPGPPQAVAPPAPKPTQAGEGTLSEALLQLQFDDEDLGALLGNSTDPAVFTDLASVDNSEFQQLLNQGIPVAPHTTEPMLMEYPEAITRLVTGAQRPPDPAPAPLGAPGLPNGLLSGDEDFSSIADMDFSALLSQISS

Legend:
[1] = biological target: USP7 lacking the Ubl1 domain, FLAG-tagged (UniProt Q93009); assay: co-IP; HEK293T cells co-transfected; whole cell lysates in RIPA buffer; FLAG-tagged USP7 immunoprecipitated with anti-FLAG overnight at 4 °C, partner detected by Western blot (Fig. 2B-F, Fig. 3A)
[2] = biological target: USP7 lacking the Ubl3 domain, FLAG-tagged (UniProt Q93009); assay: as above
[3] = biological target: USP7 lacking the Ubl4 domain, FLAG-tagged (UniProt Q93009); assay: as above
[4] = biological target: USP7 lacking the Ubl5 domain, FLAG-tagged (UniProt Q93009); assay: as above
DAXX-FLAG = DAXX-FLAG (UniProt Q9UER7); assay: co-IP; HEK293T cells co-transfected; whole cell lysates in RIPA buffer; the partner of USP7 immunoprecipitated (anti-HA, anti-DAXX, anti-c-Rel, anti-RelB or anti-p65) overnight at 4 °C, USP7 detected by Western blot (Fig. 3B-E, Fig. 6C)
RelB-FLAG = biological target: T1, RelB-FLAG (UniProt Q01201); assay: as above
T1 sequence: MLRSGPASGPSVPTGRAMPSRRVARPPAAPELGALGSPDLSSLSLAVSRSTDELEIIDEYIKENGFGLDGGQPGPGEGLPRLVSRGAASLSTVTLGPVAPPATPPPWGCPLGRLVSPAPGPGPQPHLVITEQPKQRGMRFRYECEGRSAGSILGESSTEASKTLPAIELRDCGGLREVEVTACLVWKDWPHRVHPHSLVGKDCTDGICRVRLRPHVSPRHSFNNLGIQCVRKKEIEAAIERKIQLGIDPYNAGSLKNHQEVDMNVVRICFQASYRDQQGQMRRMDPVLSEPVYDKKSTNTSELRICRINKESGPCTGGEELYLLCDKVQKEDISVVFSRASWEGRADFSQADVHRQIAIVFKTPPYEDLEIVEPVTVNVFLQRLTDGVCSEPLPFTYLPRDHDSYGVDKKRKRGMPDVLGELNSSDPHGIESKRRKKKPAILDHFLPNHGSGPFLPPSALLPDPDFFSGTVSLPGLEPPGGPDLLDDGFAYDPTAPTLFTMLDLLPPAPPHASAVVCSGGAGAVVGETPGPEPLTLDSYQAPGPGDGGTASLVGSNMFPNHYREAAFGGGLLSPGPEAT

| binding [1] | binding [2] | binding [3] | binding [4] | binding (DAXX-FLAG) | binding (RelB-FLAG) | Substance |
| --- | --- | --- | --- | --- | --- | --- |
| binds | binds | binds | binds |  |  | NF-kB p65 (RelA), expressed in HEK293T cells (from UniProt Q04206 1-551) |
|  |  |  |  | binds | binds | USP7 lacking the Ubl2 domain (USP7ΔUbl2), FLAG-tagged (from UniProt Q93009) (enzyme) |

No constants are given. Whether binding was seen depends on the method and setting. Binding seen in cells or lysates may run through a third protein. Binding can be weak; no strength is given. For part of these data: Where a sequence is shown, tags or fusion partners need not be part of it.
